From paper PMC12398889

Biological target: T1, Flag-CPNE5 (mouse CPNE5 cDNA with a Flag tag in pcDNA3.1(+)) (mouse) (UniProt Q8JZW4)
T1 sequence: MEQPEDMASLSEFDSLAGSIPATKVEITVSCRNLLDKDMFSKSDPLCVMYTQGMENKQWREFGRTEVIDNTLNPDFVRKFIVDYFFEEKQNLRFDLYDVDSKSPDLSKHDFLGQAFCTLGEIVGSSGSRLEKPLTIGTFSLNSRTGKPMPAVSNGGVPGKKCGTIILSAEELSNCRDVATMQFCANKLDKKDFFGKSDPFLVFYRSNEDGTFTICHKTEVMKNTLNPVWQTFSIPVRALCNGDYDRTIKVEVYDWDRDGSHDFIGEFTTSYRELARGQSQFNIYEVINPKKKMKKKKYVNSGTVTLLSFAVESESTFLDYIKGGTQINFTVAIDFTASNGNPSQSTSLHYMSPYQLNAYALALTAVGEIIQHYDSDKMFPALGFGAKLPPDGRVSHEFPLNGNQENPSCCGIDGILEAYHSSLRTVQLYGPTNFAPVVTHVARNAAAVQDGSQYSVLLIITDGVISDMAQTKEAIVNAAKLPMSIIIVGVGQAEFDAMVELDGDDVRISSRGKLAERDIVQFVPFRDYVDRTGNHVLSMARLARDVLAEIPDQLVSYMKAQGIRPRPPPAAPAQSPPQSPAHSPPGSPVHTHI
Experiment: affinity purification with mass spectrometry; anti-Flag IP from NMCMs transfected with Flag-Cpne5; SDS-PAGE, Coomassie, bands differing from the control analysed by LC-ESI-MS

B1: FAS receptor (receptor, UniProt P25446 22-327)
chain: QGTNSISESLKLRRRVRETDKNCSEGLYQGGPFCCQPCQPGKKKVEDCKMNGGTPTCAPCTEGKEYMDKNHYADKCRRCTLCDEEHGLEVETNCTLTQNTKCKCKPDFYCDSPGCEHCVRCASCEHGTLEPCTATSNTNCRKQSPRNRLWLLTILVLLIPLVFIYRKYRKRKCWKRRQDDPESRTSSRETIPMNASNLSLSKYIPRIAEDMTIQEAKKFARENNIKEGKIDEIMHDSIQDTAEQKVQLLLCWYQSHGKSDAYQDLIKGLKKAECRRTLDKFQDMVQKDLGKSTPDTGNENEGQCLE
In the case of B1, the binding is reported as “binds”.

No constants are given. Whether binding was seen depends on the method and setting. In cells and extracts the contact can be indirect. Here binding means that the protein was enriched with, or labelled near, the bait; the list need not be complete. Where a sequence is shown, tags or fusion partners need not be part of it.
